Source: article PMC10761827

Sequences of proteins named here, by UniProt entry; tags and fusion partners are left off. Residues count along the entry.
UniProt Q9EP73, residues 19-290: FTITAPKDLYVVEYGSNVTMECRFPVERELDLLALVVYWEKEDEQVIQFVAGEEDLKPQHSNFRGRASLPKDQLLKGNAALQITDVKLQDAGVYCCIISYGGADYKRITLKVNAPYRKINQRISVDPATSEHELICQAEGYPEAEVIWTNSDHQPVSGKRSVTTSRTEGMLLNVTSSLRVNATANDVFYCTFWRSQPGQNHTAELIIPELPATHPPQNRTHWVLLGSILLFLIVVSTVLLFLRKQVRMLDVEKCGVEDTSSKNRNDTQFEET

Biological target: T1, Flag-tagged OTUB2 overexpressed in B16-F10 cells (not stated (human or mouse cDNA cloned)) (UniProt Q9CQX0)
T1 sequence: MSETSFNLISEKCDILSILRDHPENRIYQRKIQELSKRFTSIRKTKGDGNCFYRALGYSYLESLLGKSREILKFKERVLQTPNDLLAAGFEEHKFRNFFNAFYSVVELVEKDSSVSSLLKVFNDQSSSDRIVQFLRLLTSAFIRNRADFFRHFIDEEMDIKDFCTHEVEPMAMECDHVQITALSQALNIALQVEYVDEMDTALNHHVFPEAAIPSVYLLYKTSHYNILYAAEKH
Assay: affinity purification with mass spectrometry; lysates of B16-F10 cells overexpressing Flag-tagged OTUB2, immunoprecipitated with anti-Flag M2 affinity gel, Flag peptide eluents analysed by mass spectrometry

binding: binds
Substance: endogenous PD-L1 (B16-F10 cells) (from UniProt Q9EP73 19-290) (ligand)

Results are given in words; binding and its absence hold for the method and conditions named. Binding seen in cells or lysates may run through a third protein. Here binding means that the protein was enriched with, or labelled near, the bait; the list need not be complete. Where a sequence is shown, tags or fusion partners need not be part of it.
